Test [1] concerns the target HECT-domain of Nedd4 (residues 510-900) (UniProt P46934). As to the kind of experiment: phage selection and ELISA.
Test [2] deals with ITCH HECT domain (residues 483-862) (UniProt Q96J02). As to the kind of experiment: phage ELISA after 5 rounds of selection.

Sequences of proteins named here, by UniProt entry; tags and fusion partners are left off. Residues count along the entry.
UniProt P46934, residues 929-1319: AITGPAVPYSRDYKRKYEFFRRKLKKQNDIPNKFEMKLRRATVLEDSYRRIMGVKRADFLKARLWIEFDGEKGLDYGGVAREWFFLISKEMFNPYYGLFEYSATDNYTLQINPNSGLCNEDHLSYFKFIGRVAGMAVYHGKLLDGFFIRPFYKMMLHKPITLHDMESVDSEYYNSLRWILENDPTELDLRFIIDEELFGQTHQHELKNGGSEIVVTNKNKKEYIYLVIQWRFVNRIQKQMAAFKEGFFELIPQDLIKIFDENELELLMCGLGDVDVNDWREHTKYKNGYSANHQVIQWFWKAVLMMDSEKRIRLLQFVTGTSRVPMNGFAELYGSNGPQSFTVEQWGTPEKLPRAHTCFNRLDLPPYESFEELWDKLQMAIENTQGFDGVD
UniProt Q96J02, residues 524-903: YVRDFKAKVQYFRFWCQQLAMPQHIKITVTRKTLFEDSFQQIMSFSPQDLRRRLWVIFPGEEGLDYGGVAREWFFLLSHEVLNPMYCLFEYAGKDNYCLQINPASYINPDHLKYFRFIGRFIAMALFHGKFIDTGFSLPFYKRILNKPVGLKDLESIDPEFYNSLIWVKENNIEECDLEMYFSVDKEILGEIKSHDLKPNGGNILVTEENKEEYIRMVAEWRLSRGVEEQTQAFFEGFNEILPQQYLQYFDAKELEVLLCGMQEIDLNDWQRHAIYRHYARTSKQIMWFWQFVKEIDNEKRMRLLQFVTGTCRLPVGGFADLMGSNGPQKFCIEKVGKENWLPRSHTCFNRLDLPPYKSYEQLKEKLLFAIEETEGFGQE

Residue numbers refer to the chain shown, from its start. No constants are given. Whether binding was seen depends on the method and setting. Some results given as binding are weak or reduced against the parent protein; the word gives no strength.

B1: Nedd4-N4-D8 (designed binder)
chain: MQIFVRTLTGKTITLEVEPSDTIENVKAKIQDKEGIPPDQQRLIFAKQQLEDGRTLSDYNILKESTLGLVRRLRGLVS
For the molecule B1, the binding result in test [1] is “binds”.

B2: Nedd4-N4-C6 (designed binder)
chain: MPIVVKTLAGYTIHLEVEPSDTIENVKAKIQDKEGIPPDQQKLLFAGNRLEDGRTLSDYNIHNGSTLYLVKRLRGGGG
As for B2, the binding result in test [1] is “binds”.

B3: Nedd4-N4-C1 (designed binder)
chain: MQILVQTLTRKTITLEVEPSDTIENVKAKIQDKEGIPPDQQRLFFAGTQLEDGRTLSDYNIQKHSTLYLVLRLLGRRH
Turning to B3, the binding entry in test [1] is listed as “binds”.

B4: Nedd4-N4-D10 (designed binder)
chain: MQIFVRTLMRKSISLEVEPSDTIENVKAKIQDKEGIPPDQQKLIFAGKLLEDGRTLSDYNIQKESTLHLVKKLILLRE
Regarding B4, the binding entry in test [1] was “binds”.

B5: Ubv.ITCH.04 (designed binder)
chain: MQIFVKTLTGLSITLEVEPSDTIENVKAKIQDKEGIPPDQQILIFGGKRLEDGRTLSDYNIQKKSTLYLLMRLRGVSR
As for B5, the binding result in test [2] is reported as “binds”.

B6: Nedd4-N4-B5 (designed binder)
chain: MQIVVKTLSRRTIGLEVEPSDTIENVKAKIQDKEGIPPDQQRLIFAGKKLEDGRTLSDYNIQKESTLHLALKLPGMGG
As to B6, in test [1], the binding result is “binds”.

B7: Nedd4-N4-A11 (designed binder)
chain: MLILVKTLTGHSITLEVEPSDTIENVKAKIQDKEGIPPDQQRLFFAGKQLEDGRTLSDYNIHKFSTLHLVKRLRGRWK
In the case of B7, the binding entry in test [1] is reported as “binds”.

B8: Nedd4-N4-C4 (designed binder)
chain: MYISVKTLTGESISLEVEPSDTIENVKAKIQDKEGIPPDQQKLFFAGKILEDGRTLSDYNILKWSTLHLVKRLRAVHM
Turning to B8, the binding entry in test [1] is recorded as “binds”.

B9: Nedd4-N4-B1 (designed binder)
chain: MHIFVRTLTRKIITLEVEPSDTIENVKAKIQDKEGIPPDQQRLFFTGMTLEDGRTLSDYNIQKESTLHLVLRLRGGGG
Regarding B9, the binding entry in test [1] was “binds”.

B10: Nedd4-N4-D12 (designed binder)
chain: B9 chain with H2Q, F4Y, R6K, I12R, R42K, T46N, M48K, T49Q
Consider B10, for which the binding entry in test [1] is “binds”.

B11: Nedd4-N4-B10 (designed binder)
chain: B9 chain with H2R, F4L, R6K, I12V, F44I, T46A, M48Q, T49R
In the case of B11, the binding entry in test [1] was “binds”.

B12: Nedd4-N4-B6 (designed binder)
chain: MQIFVKTFTGKSITLEVEPSDTIENVKAKIQDKEGIPPDQQRLIFDRNKLEDGRTLSDYNIKKESTLGLVLRLRGGGG
Consider B12, for which the binding result in test [1] was “binds”.

B13: Nedd4-N4-C10 (designed binder)
chain: MQILVKTLTGKTITLEVEPSDTIENVKAKIQDKEGIPPDQQRLIFAGLKLEDGRTLSDYNIQKVSTLYLVKTFPGRRQ
As for B13, the binding result in test [1] was “binds”.

B14: Nedd4-N4-A9 (designed binder)
chain: MRIFVTTLTGRAITLEVEPSDTIENVKAKIQDKEGIPPDQQRLIFTGKKLEDGRTLSDYNIPKESTLYLVKRLRGMEQ
B14: the binding result in test [1] is listed as “binds”.

B15: Ubv.ITCH.05 (designed binder)
chain: MQIFVKTLTGTDITLEVEPSDTIENVKAKIQDKEGIPPDQQILLFAGKQLEDGRTLSDYNIPGDSTLYLLMRFGVNKR
B15: in test [2], the binding result is on record as “binds”.

B16: Nedd4-N4-D5 (designed binder)
chain: MQIFVPTLVQKAINLEVEPSDTIENVKAKIQDKEGIPPDQQRLFFFRKPLEDGRTLSDYNIKKESTLHLLWRFSSRLM
As to B16, the binding entry in test [1] is “binds”.

B17: Nedd4-N4-D1 (designed binder)
chain: MQIFVNTLARTSISLEVEPSDTIENVKAKIQDKEGIPPDQQRLIFAGKQLEDGRTLSDYNIQKESTLHLVLRLPGTKV
B17: the binding entry in test [1] was “binds”.

B18: Nedd4-N4-D3 (designed binder)
chain: MKISVNTLTGKTITLEVEPSDTIENVKAKIQDKEGIPPDQQRLIFAGKQLEDGRTLSDYNIQKYSTLYLVKRLRRLKQ
As to B18, the binding entry in test [1] is on record as “binds”.
